No constants are given. Whether binding was seen depends on the method and setting.
Columns and labels:
[1] = molecular target: hL1ORF1p(DD)-NTR^H6 (NTR with phospho-mimicking S18D/S27D) (human) (UniProt Q9UN81); assay: SEC-MALS; Superdex 200 (10/300 GL), gel filtration buffer (10 mM HEPES pH 7.5, 300 mM NaCl, 1 mM DTT); both purified
[2] = molecular target: hL1ORF1p-ΔNTR (human L1ORF1p without the NTR, GPHMS53-M338) (human) (UniProt Q9UN81); assay: SEC; NTR-binding assay: NTR peptide mixed 'in trans' with the hL1ORF1p-ΔNTR trimer, Superdex 200, gel filtration buffer; fractions on SDS PAGE; both purified
[3] = molecular target: hL1ORF1p-NTR^H6 (N-terminal region of human L1ORF1p, M1-N51-HHHHHH) (human) (UniProt Q9UN81); assay: SEC-MALS; Superdex 200 (10/300 GL), gel filtration buffer (10 mM HEPES pH 7.5, 300 mM NaCl, 1 mM DTT); both purified

Sequences of proteins named here, by UniProt entry; tags and fusion partners are left off. A change or cut given only in a name is not applied to a line headed by its entry. A line that says so, or that is headed by a name, gives the form on record, which may keep a tag or linker. Residues count along the entry.
hL1ORF1p-NTR^H6 (N-terminal region of human L1ORF1p, M1-N51-HHHHHH) (Q9UN81, residues 1-51): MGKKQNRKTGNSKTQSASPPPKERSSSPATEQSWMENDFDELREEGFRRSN
hL1ORF1p(DD)-NTR^H6 (NTR with phospho-mimicking S18D/S27D) (Q9UN81, form named): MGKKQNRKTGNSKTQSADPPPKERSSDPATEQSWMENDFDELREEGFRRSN
hL1ORF1p-ΔNTR (human L1ORF1p without the NTR, GPHMS53-M338) (Q9UN81, form named): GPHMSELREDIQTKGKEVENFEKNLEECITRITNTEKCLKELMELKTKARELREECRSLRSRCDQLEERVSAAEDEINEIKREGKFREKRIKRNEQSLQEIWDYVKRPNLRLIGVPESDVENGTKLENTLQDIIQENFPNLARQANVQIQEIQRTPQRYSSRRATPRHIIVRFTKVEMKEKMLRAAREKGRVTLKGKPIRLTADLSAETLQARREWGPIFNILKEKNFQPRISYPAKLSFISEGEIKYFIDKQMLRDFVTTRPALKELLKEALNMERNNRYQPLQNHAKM

| binding [1] | binding [2] | binding [3] | Substance |
| --- | --- | --- | --- |
| no binding | no binding |  | hL1ORF1p(DD)-NTR^H6 (NTR with phospho-mimicking S18D/S27D) (from UniProt Q9UN81 1-51) (domain or fragment) |
|  | no binding | no binding | hL1ORF1p-NTR^H6 (N-terminal region of human L1ORF1p, M1-N51-HHHHHH) (from UniProt Q9UN81 1-51) (domain or fragment) |
